Experimental findings from patent US20260209333A1 (VETMAB BIOSCIENCES, published 2026) are described below.

These are yes or no findings as the source states them, for the method shown. Some binding calls cover weakened binding; strength is not graded here. For some assays here: Where a sequence is shown, tags or fusion partners need not be part of it.

Experiment [1] deals with Recombinant canine IL23 (single chain p40 + linker + p19, Avitag, polyHis tag) (canine). Kind of experiment: Biacore affinity assay ('Active' = specific binding to canine IL23). Background: In SPR one partner is held on a chip, and binding of the other changes the refractive index at the surface.
In a further experiment the target is T1, Canine p40 polypeptide (canine, UniProt Q28268 23-329).
T1 sequence (looked up): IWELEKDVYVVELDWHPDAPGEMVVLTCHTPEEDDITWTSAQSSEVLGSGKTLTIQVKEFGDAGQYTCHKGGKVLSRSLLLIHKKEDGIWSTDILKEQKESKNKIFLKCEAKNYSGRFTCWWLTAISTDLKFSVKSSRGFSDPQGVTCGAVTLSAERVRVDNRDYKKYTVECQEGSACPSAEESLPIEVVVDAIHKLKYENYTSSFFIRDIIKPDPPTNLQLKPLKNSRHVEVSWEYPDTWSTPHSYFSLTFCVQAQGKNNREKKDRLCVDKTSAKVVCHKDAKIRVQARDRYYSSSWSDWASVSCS
Kind of experiment: SPR, Biacore 8K.

B1: Anti-IL23 caninized VL variant V2 / C340 VH (antibody, human IgG1, V domains shown)
VH: EVQLVQSGAEVKKPGESLKISCKGSGYSFTTYWLGWVRQMPGKGLDWIGIMSPVDSDIRYSPSFQGQVTMSVDKSITTAYLQWNSLKASDTAMYYCARRRPGQGYFDFWGQGTLVTVSS
VL: DIVMTQTPLSLSVSPGEPASISCRASQGISSWLAWYLQKAGQSPRLLPYAASSLQSGVPDRFSGSGSGTDFTLRIGRVEAEDAGIYYCQQYNIYPYTFGQGTRLEVR
Consider B1, for which the binding entry in experiment [1] is given as “binds”.

B2: Chimeric anti-IL23 antibody (clone C340 VL and VH domains fused to canine kappa light chain constant region and canine IgG-B constant region) (antibody, V domains shown)
VH: B1 VH
VL: DIQMTQSPSSLSASVGDRVTITCRASQGISSWLAWYQQKPEKAPKSLIYAASSLQSGVPSRFSGSGSGTDFTLTISSLQPEDFATYYCQQYNIYPYTFGQGTKLEIKR
notes: also called Anti-IL23-VH-VL; Anti-IL23 (full length IgG form)
Take B2: in the experiment with Canine p40 polypeptide, the binding entry is on record as “binds”.
